Experiment: soluble on expression in E. coli; label from the status in PepcDB or PDB records
For “AKESTGFKPGSAKKGATLFKTRCQQCHTIEEGGPNKVGPNLHGIFGRHSGQVKGYSYTDANINKNVKWDEDSMSEYLTNPKKYIPGTKMAFAGLKKEKDRNDLITYMTKAAK”, the “soluble on expression in E. coli” value was “soluble”. In the case of “AMADVVPKPNWLGGLSRAAFPKRFVFGTVTSAYQVEGMAASGGRGPSIWDAFAHTPGNVAGNQNGDVATDQYHRYKEDVNLMKSLNFDAYRFSISWSRIFPDGEGRVNQEGVAYYNNLINYLLQKGITPYVNLYHYDLPLALEKKYGGWLNAKMADLFTEYADFCFKTFGNRVKHWFTFNEPRIVALLGYDQGTNPPKRCTKCAAGGNSATEPYIVAHNFLLSHAAAVARYRTKYQAAQQGKVGIVLDFNWYEALSNSTEDQAAAQRARDFHIGWYLDPLINGHYPQIMQDLVKDRLPKFTPEQARLVKGSADYIGINQYTASYMKGQQLMQQTPTSYSADWQVTYVFAKNGKPIGPQANSNWLYIVPWGMYGCVNYIKQKYGNPTVVITENGMDQPANLSRDQYLRDTTRVHFYRSYLTQLKKAIDEGANVAGYFAWSLLDNFEWLSGYTSKFGIVYVDFNTLERHPKASAYWFRDMLKH”, the “soluble on expression in E. coli” value is reported as “soluble”. In the case of “DCYHGDGQSYRGSFSTTVTGRTCQSWSSMTPHWHQRTTEYYPNGGLTRNYCRNPDAEIRPWCYTMDPSVRWEYCNLTQCPVME”, the “soluble on expression in E. coli” value is reported as “soluble”. For “GHMDEEDGEPPYEPESGCVEIPGLSEEEDPAPSRKIHFSTAPIQVFSTYSNEDYDRRNEDVDPMAASAEYELEKRVERLELFPVELEKDSEGLGISIIGMGAGADMGLEKLGIFVKTVTEGGAAHRDGRIQVNDLLVEVDGTSLVGVTQSFAASVLRNTKGRVRFMIGRE”, the “soluble on expression in E. coli” value was “soluble”. In the case of “GIPDLVKGPWTKEEDQKVIELVKKYGTKQWTLIAKHLKGRLGKQCRERWHNHLNPEVKKSSWTEEEDRIIFEAHKVLGNRWAEIAKLLPGRTDNAVKNHWNSTIKRKVDT”, the “soluble on expression in E. coli” value is reported as “soluble”. In the case of “GPGSMGNRQSSVPLEGEGHPEVFYRGVKAAQEGRFTVSEVYFVQALTRHPGRRFWDTFTRAVLQKERNAGFEGGGASLPKDGVQEDVGAGPAVDGPLGSCNDVQPQPVRGGSVTDKADELPGSDDRGDGGDSAEQTDARTNGAQPVYDTKVVDVFLPLDGDLTHIMDYYRLLADIGHTYLQLIPSTAHVEKVTGLAARYCIFTITHTQMLLHCLMLWKEARLGDGGGFIDYAKVRNLKICSGAAEHTAQSNADAHSSNEGKQKWRTIDRTASLLFTLQLLEANCRYYCLVFLANYCALLLRSYSCLTDQRKVNRVHANVVEHLDMVSRLVLDLAGEYPNEYLSRLIMANLPKPSNFDRECLSSMGASSHMGSQKILSFGNDQHRHLYASGYPWSPTQSALIPLILARTVRLTVQENVSRTSQAQLRSPAERLSYHYTTWNFDSELVIVPGCSLYMLKKSLPGFEPGKSTFAHYATMAEHEELHVPRAAADVHWQRGSAAVPVPEDGGGAAPGSHRNPRKSEDSADAEKREALTKKCEERLIKKRRHINTDLHLSDERTCVALCLEEACATALPSLLLASILRKMSGIPESAEFINNVTDLVMGLYGSDSSEWHIIASILRKHLEG”, the “soluble on expression in E. coli” value is reported as “soluble”. With “GSHMASMRVVKELEDLQKKPPPYLRNLSSDDANVLVWHALLLPDQPPYHLKAFNLRISFPPEYPFKPPMIKFTTKIYHPNVDENGQICLPIISSENWKPCTKTCQVLEALNVLVNRPNIREPLRMDLADLLTQNPELFRKNAEEFTLRFGVDRPS” the “soluble on expression in E. coli” value was “soluble”. In the case of “IGDDSLFVNVGERTNVTGSAKFKRLIKEEKYSEALDVARQQVESGAQIIDINMDEGMLDAEAAMVRFLNLIAGEPDIARVPIMIDSSKWEVIEKGLKCIQGKGIVNSISMKEGVESFIHHAKLVRRYGAAVVVMAFDEVGQADTRERKIEICRRAYKILTEEVGFPPEDIIFDPNIFAVATGIEEHNNYAQDFIGACEDIKRELPHALISGGVSNVSFSFRGNDPVREAIHAVFLYYAIRNGMDMGIVNAGQLAIYDDLPGELRDAVEDVILNRRDDSTERLLELAEKYRGSKADDG”, the “soluble on expression in E. coli” value is reported as “not soluble”. With “MAEKNDVAEQPADKPVKATKVKGTVKWFNVKNGYGFINRTDTNEDIFVHQTAIINNNPNKYLRSLGDNEEVMFDIVEGSKGLEAASVTGPDGGPVQGSKYAADRDAENAARGRGGRGRGRRGGRGGIRHDSGSRDAEEGGAPRGGGRGGSRRGGGGRGGGRTNSGGEETARDTDGGERGGRGGGRRGGRGRGGRGRGGRGGQGGQSEA” the “soluble on expression in E. coli” value was “soluble”. For “MAKIPVTVLSGYLGSGKTTLLNHILQNREGRRIAVIVNDMSEVNIDKDLVADGGGLSRTDEKLVELSNGCICCTLRDDLLKEVERLVKKGGIDQIVIESTGISEPVPVAQTFSYIDDELGIDLTAICRLDTMVTVVDANRFVHDINSEDLLMDRDQSVDETDERSIADLLIDQVEFCDVLIINKIDLISEEELAKLEKVLSALQPIAKIIKTTNSEVDLKEVLNTQRFDFEKASESAGWIKELESGGHASHTPETEEYGISSFVYKRRLPFHAKRFNDWLESMSNNVVRSKGIVWLAQYNHVACLLSQAGSSCNIHPVTYWVASMSEAQQTQILAERQDVAAEWDPEYGDRHTQFVIIGTELDEEKLTKELDACLVNAQEIDADWQQFEDPYQWQIRPAR”, the “soluble on expression in E. coli” value was “not soluble”. With “MGHHHHHHSHMDYTLTRIDPNGENDRYPLQKQEIVTDPLEQEVNKNVFMGKLNDMVNWGRKNSIWPYNFGLSCCYVEMVTSFTAVHDVARFGAEVLRASPRQADLMVVAGTCFTKMAPVIQRLYDQMLEPKWVISMGACANSGGMYDIYSVVQGVDKFIPVDVYIPGCPPRPEAYMQALMLLQESIGKERRPLSWVVGDQGVYRANMQSERERKRGERIAVTNLRTPDEI” the “soluble on expression in E. coli” value was “not soluble”. With “MGHHHHHHSHMENFKGLQKSLYIWTDSADLDKRVEQLKAATGGDVALENVHRLSFSSYANSSFDLIVIECAQLTDSYVKLLHMLKPSGKLHLVSYIGPAASLLQEIKLSGFINCREDSPDALTAEKPGYETGSSARLSFAKKNASAVNVWKISGDDEELIDEEELLDEEDKQKPDPAGLRVCSTTGKRKACKNCSCGLAEELETEKQSQKATENAKSSCGNCYLGDAFRCSTCPYLGMPAFKPGEKVQLADNLLKSDI” the “soluble on expression in E. coli” value was “soluble”. For “MGHHHHHHSHMRSKGRARKLATNNECVYGNYPEIPLEEMPDADGVASTPSLNIQEPCSPATSSEAFTPKEGSPYKAPIYIPDDIPIPAEFELRESNMPGAGLGIWTKRKIEVGEKFGPYVGEQRSNLKDPSYGWEVHLPRSRRVSVHSWLYLGKRSSDVGIAFSQADVYMPGLQCAFLS”, the “soluble on expression in E. coli” value was “not soluble”. In the case of “MGHHHHHHSHNGAEGDQINASKNEEDAGKMFVGGLSWDTSKKDLKDYFTKFGEVVDCTIKMDPNTGRSRGFGFILFKDAASVEKVLDQKEHRLDGRVIDPKKAMAMKKDPVKKIFVGGLNPEATEEKIREYFGEFGEIEAIELPMDPKLNKRRGFVFITFKEEEPVKKVLEKKFHTVSGSKCEIKVAQPKEVYQQQQYGSGGRGNRNRGNRGS”, the “soluble on expression in E. coli” value is reported as “soluble”. In the case of “MHIGQALDLVSRYDSLRNPLTSLGDYLDPELISRCLAESGTVTLRKRRLPLEMMVWCIVGMALERKEPLHQIVNRLDIMLPGNRPFVAPSAVIQARQRLGSEAVRRVFTKTAQLWHNATPHPHWCGLTLLAIDGVFWRTPDTPENDAAFPRQTHAGNPALYPQVKMVCQMELTSHLLTAAAFGTMKNSENELAEQLIEQTGDNTLTLMDKGYYSLGLLNGWSLAGEHRHWMIPLRKGAQYEELRKLGKGDHLVKLKTSPQARKKWPGLGNEVTARLLTVTRKGKVCHLLTSMTDAMRFPGGEMADLYSNRWEIELGYREIKQTMQLSRLTLRSKKPELVEQELWGVLLAYNLVRYQMIKMAEHLKGYWPNQLSFSESCGMVMRMLMTLQGASPGRIPELMSDLASMGQLVKLPTRRGRAFPRVVKERPWKYPTAPKKSQSVA”, the “soluble on expression in E. coli” value is reported as “not soluble”. With “MIFACVNTKGGVGKTTTAVHLAVMLARQGKTLLIDGDPQASAASWAAWRRETQYDPSPTTTCLAGKAILAEGKQLATGFEHVVVDAGGRDSVGLRSALLLAQSAVIPVGASNLDAAAMTDLLEVVELARDYNPELDVRVLLTRVDPRTKDAVEMLEFLAEQKLTVLPTKVCERVAFRRAIGEGATVQELGRDQAAIAEMEAFFKEVMALEHHHHHH” the “soluble on expression in E. coli” value was “not soluble”. For “MPDMSQLKELPFSTLQFYATAPYPCSYLPGRQARSQVAAPGHLINAGTYSQLVEQGFRRSGLFTYRPHCDNCHACVPVRVDAARFEPNRTQRRAWRSHQALRAFVAELAWSPEHYDLYTRYQQGRHPGGGMDEDSRTQYAQFLLTTRVNTRLVEFRAPQGQLAMISIIDVLDDGLSSVYTFYDPDMAGSLGTYSILWQIEQCRTLDLPWLYLGYWIADSRKMAYKANFRPLQMHVDGAWRETPPLEHHHHHH”, the “soluble on expression in E. coli” value was “soluble”. With “MQKKVIAAIIGTSAISAVAATQANAATTHTVKPGESVWAISNKYGISIAKLKSLNNLTSNLIFPNQVLKVSGSSNSTSNSSRPSTNSGGGSYYTVQAGDSLSLIASKYGTTYQNIMRLNGLNNFFIYPGQKLKVSGTASSSNAASNSSRPSTNSGGGSYYTVQAGDSLSLIASKYGTTYQKIMSLNGLNNFFIYPGQKLKVTGNASTNSGSATTTNRGYNTPVFSHQNLYTWGQCTYHVFNRRAEIGKGISTYWWNANNWDNAAAADGYTIDNRPTVGSIAQTDVGYYGHVMFVERVNNDGSILVSEMNYSAAPGILTYRTVPAYQVNNYRYIH” the “soluble on expression in E. coli” value was “not soluble”. With “MRSDAVKKGIERAPHRALFKAMGYTDEELERPLIGVVNSRNEIVPGHIHLDKIAEAVKAGIRMAGGTPVEFGAIGVCDGIAMGHTGMKYSLATRELIADSCEAMALAHSFDGMVFIPNCDKIVPGMLMAAARINVPAIVVSGGPMLSLRHNDKNLDLNSVFEAVGAYKAGKMTEKEVWEYEEKACPGCGSCSGMFTANSMNCLTEVLGMGLPGNGTVPAVYAERIRLAKKAGMKIVELVEKDIKPSDILTPKAFENALAVDMALGCSTNSVLHLPAIANEVGMEINLDIINEISSKVPNLCKLAPAGHHHVQDLYAAGGIPAVMKELSKKNLLHLDLITVTGKTVRENIENAKVRDYEVIRSIDNPYSPTGGIAVLRGNLAPDGAVVKRSAVAPEMLVHKGPARVFDSEDAAIEAIYNGKINKGDVVIIRYEGPKGGPGMREMLSPTSAIAGMGLDKDVALITDGRFSGATRGASIGHVSPEAMAGGPIAIVRDGDIISIDIPNGKLDVEIPDSEIQKRLKEWKAPAPKITKGYLGRYAKLVSSANKGAILENK” the “soluble on expression in E. coli” value was “soluble”. In the case of “MSNPTDNNSATSSITPNCEFLMFEVSTNLVIQFTYFVKLYPNYFQIRFASFFGAPPPPPLIEWNFKIKCFSKAIIQLFPKLISFFFSVSAFSSFTTYKPSDSFSSFESDSSPSKSSSSRKNRDKIADKKQRRNRTTFTTFQLHALEAAFDKTHYPDVYARETLAAKVQLPEVRVQVWFQNRRAKFRRQEKQDCQGEEKHSLKDTMPSWSWMSENKTDTPPMLPPANTLSSTHNNGISDEFFKTSEGKEVYGFPFAEYGTPADNTHVSKTGNVFHLNFEDSDKKSMKKESPQTPSTSSPFISEYHPPFIPYYIPNQSFSNAFNQYPMPFPYPIHFEPPQLTHSQENC”, the “soluble on expression in E. coli” value is reported as “not soluble”. In the case of “MSSYPSSGRRRPITRSEAEERALDKISREAEARMKLKRETREQARQGRYQLLEKKVEEDAEAYRHDTASTSNTNGVSSQSNQTQEQLHDKVIELQDRVQQVMFLYSQLDNEKSTLLYEVDLLKDELEEKDASLNLSSRECRDLTSEVKALKRTIDALHASQQQLKQEISQRDQLIQENGLCLVEEDPDDEGSESTNNASGEIRSGPYLFKRETIRLVDRVVPGAASLDDKIQKLVDTNKKMRKDYEELEQTIYTQRHARNARDSANVIPNQGVDDVNKDAAKQLAEMKLKMQDLERENTNQQGNVIRMEGQMKRYKSNADVAEKELDELKTQMRQTKKELRDKENALDEQKETNKHLQSRLEKMRMQRTGRPL”, the “soluble on expression in E. coli” value is reported as “not soluble”. For “MTIFQGKSGKKATGGSLKQSRKKRRFELGREPTLTKLGTKTERKVIRTMGGNTKVILFTAETANVYDASEKKIKKAKIITVKANPANSHYVQRNIINKGTVIATEIGDAVVTSRPGQDGVINAKLLKLEHHHHHH”, the “soluble on expression in E. coli” value was “soluble”.

— the DeepSol protein solubility set
